These are yes or no findings as the source states them, for the method shown. Some binding calls cover weakened binding; strength is not graded here.

Protein sequences, listed by entry. Tags and fused reporters are not part of them. Residues count along the entry.
UniProt O95925, residues 22-133: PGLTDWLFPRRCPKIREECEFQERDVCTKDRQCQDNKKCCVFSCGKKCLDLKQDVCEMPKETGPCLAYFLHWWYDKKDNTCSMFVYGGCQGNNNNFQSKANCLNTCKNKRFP
recombinant SEMG1^74-42 (residues R165-R281) (P04279, residues 165-281): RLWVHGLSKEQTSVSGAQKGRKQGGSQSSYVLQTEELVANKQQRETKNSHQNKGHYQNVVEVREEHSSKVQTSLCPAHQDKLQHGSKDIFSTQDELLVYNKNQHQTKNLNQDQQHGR
recombinant SEMG1^74-8 (residues R165-Q247) (P04279, residues 165-247): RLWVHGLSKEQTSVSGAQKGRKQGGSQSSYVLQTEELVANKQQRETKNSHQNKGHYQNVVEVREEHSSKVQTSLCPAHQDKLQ
recombinant SEMG1^32-42 (residues Q207-R281) (P04279, residues 207-281): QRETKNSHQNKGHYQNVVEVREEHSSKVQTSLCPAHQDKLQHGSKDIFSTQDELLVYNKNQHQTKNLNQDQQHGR

The target of the assay is human recombinant EPPIN (residues P22-P133) (human) (UniProt O95925). Nature of the assay: AlphaScreen or HTRF; direct binding, concentration-response: EPPIN (29 nM) on anti-EPPIN Q20E antibody (2 nM) and Protein A acceptor beads; His-tagged SEMG1 construct (0.04-7.5 µM) on Ni-NTA-chelate donor beads; 10 µg/ml beads, 30 µl; EC50 from the specific signal after 16 h; both purified. (In Alpha technology, singlet oxygen from a donor bead excites a nearby acceptor bead.)
Regarding “recombinant SEMG1^32-42 (residues Q207-R281) (from UniProt P04279-1 207-281) (domain or fragment)”, the binding entry is listed as “no binding (tested: 0.04-7.5 µM SEMG1 tested)”.
Next, “recombinant SEMG1^74-42 (residues R165-R281) (from UniProt P04279-1 165-281) (domain or fragment)”: “binds”; “recombinant SEMG1^74-8 (residues R165-Q247) (from UniProt P04279-1 165-247) (domain or fragment)”: “binds”.
